According to PubChem BioAssay AID624297 (National Center for Advancing Translational Sciences (NCATS), 2012):
The whole screen tested about 340,000 compounds, of which about 6,200 (1.8%) were called active. The shares of active, inactive and inconclusive entries below differ from those in the screen. Calls follow the shape of the dose curve; as a rule, active = well fitted activation curve with a large enough effect; inconclusive = small, poorly fitted or top-dose-only effect; inactive = no such curve, though single readings can be large or run the other way. Potencies of inconclusive entries are doubtful fits and often do not repeat.
Potency is read from the fitted curve at half-maximal effect.

Test: A quantitative high throughput screen for small molecules that induce DNA re-replication in SW480 colon adenocarcinoma cells. Also: nearly all actives have a fitted effect of over 55% in size. As to re-replication activation: % of control where 0% means no effect.
Conditions: Hoechst DNA content imaging, 48 h; re-replication activation: at 46.1 µM (top of the series) unless noted
Procedure, shortened: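 Readout is total intensity of Hoechst-stained nuclei, excited at 405 nm and collected at 500-530 nm. Compound treatment lasted 48 hr at 37 C in 5% CO2 before staining.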
For COc1cc(-c2noc(C)c2C#Cc2ccccn2)cc(OC)c1OC, the Potency was active: 3.66 µM. In the case of COc1ccc2oc(C(=O)Nc3ccc(S(=O)(=O)N(C)C4CCN(C)CC4)cc3)c(C)c2c1, the Potency is reported as inconclusive: 29.1 µM [activator, single point]. For Cn1nnnc1Sc1ncnc2scc(-c3ccc(Br)cc3)c12, the Potency was inconclusive: 1.03 µM [activator, full curve, poor fit]. In the case of N#Cc1ccc(Cl)cc1NC(=O)CNc1cccc(S(=O)(=O)N2CCCC2)c1, the Potency is reported as inconclusive: 14.6 µM [activator, partial curve]. With O=C(NC1CCCCCC1)c1ccc([N+](=O)[O-])s1 the Potency was active: 18.4 µM. In the case of Cc1cccc(N(C(=O)c2snc(C(N)=O)c2N)C(C(=O)NCc2ccccc2)c2ccncc2)c1 (stereo not drawn), the Potency is reported as inconclusive: 18.4 µM [activator, single point]. With COCC(C)N=C1NN=C(c2ccc(NC(C)=O)cc2)CS1 (stereo not drawn) the Potency was inconclusive: 29.1 µM [activator, single point]. For O=C(Nc1ccccc1)Nc1nnc(Cc2ccc([N+](=O)[O-])cc2)s1, the Potency was inconclusive: 14.6 µM [activator, single point]. In the case of CCC(C)Sc1ccc(-c2nc3cnccn3c2NC2CCCCC2)cc1 (stereo not drawn), the Potency is reported as inconclusive: 29.1 µM [activator, single point]. With Cc1ccc(S(=O)(=O)c2c(N)n(Cc3ccco3)c3nc4ccccc4nc23)cc1 the Potency was inconclusive: 23.1 µM [activator, single point]. With Cc1ccc2sc(N(CCCN(C)C)C(=O)c3ccc(S(=O)(=O)N4CCCCCC4)cc3)nc2c1C the “re-replication activation” value was inactive: -1.26%. In the case of COc1ccc(Cl)cc1-c1nc(SCC(=O)NC(C)C)n[nH]1, the “re-replication activation” value is reported as inactive: -1.64%. With COCC1CCCCN1C(=O)c1ccc(OC)c(OC2CCN(C(C)C)CC2)c1 (stereo not drawn) the re-replication activation was inconclusive: 109% [activator]. In the case of CCc1ccc2[nH]cc(S(=O)(=O)c3ccc(C)c(C)c3)c(=O)c2c1, the “re-replication activation” value is reported as inactive: -9.76%. For O=C(CNc1ccccc1F)Nc1cccc2ccccc12, the Potency was inconclusive: 4.11 µM [activator, full curve, poor fit]. For Cn1c(CSCc2ccc(Cl)cc2Cl)n[nH]c1=S, the “re-replication activation” value was inactive: 4.94%. In the case of Cc1ccc2c(c1)c(-c1ccccc1)nc1nnnn12, the “re-replication activation” value is reported as inactive: -2.26%. With Cc1cc(C)n(-c2nnc3n2N=C(c2c[nH]c4ccccc24)CS3)n1 the Potency was inconclusive: 25.9 µM [activator, single point]. With COc1cccc(Cn2c(=O)sc3ccccc3c2=O)c1 the Potency was inconclusive: 3.26 µM [activator, full curve]. In the case of Cc1ccc(-c2csc(N3CCC[C@@H]3C(=O)NCCn3c(C(F)(F)F)nc4ccccc43)n2)cc1, the Potency is reported as inconclusive: 4.11 µM [activator, partial curve, poor fit]. For CCCCCCC(=O)NC(Nc1ccc(S(N)(=O)=O)cc1)C(Cl)(Cl)Cl (stereo not drawn), the re-replication activation was inactive: -1% [at 9.22 µM]. For CC(C)Cc1nnc(NC(=O)c2ccc3c(c2)NC(=O)C(C)S3)s1 (stereo not drawn), the Potency was inconclusive: 2.31 µM [activator, full curve, poor fit]. With O=C(O)c1ccccc1OC(C(=O)Nc1cc(Cl)cc(Cl)c1)c1ccccc1 (stereo not drawn) the Potency was inconclusive: 18.4 µM [activator, single point]. With N#C/C(=C/c1ccc(N2CCOCC2)o1)c1ccc(Br)cc1 the Potency was active: 5.8 µM. For Cn1nccc1NC(=O)Nc1ccc(Cl)cc1, the Potency was inconclusive: 20.6 µM [activator, single point]. With CCC1=C2CC[C@H]3C(=O)N(CC)C(=O)[C@H]3[C@H]2[C@@]2(Cc3ccccc3)C(=NCc3ccccc3)OC(=O)N2C1=O the Potency was inconclusive: 0.103 µM [activator, full curve, poor fit]. For O=C(N[C@H]1C/C=C\C[C@@H](CC(=O)N(CCO)Cc2ccccc2)C(=O)N2CCC[C@H]2COC1=O)OCC1c2ccccc2-c2ccccc21, the Potency was inconclusive: 2.31 µM [activator, partial curve, poor fit]. In the case of CCC(=O)Nc1nc(-c2ccc3c(c2)OCCO3)cs1, the “re-replication activation” value is reported as inactive: 12.5%. In the case of Cc1cc(C(=O)OCC(=O)NCc2ccc(Cl)cc2Cl)c(C)o1, the Potency is reported as inconclusive: 2.31 µM [activator, single point]. With Cc1ccc2nc3c(cc(C(=O)NCCCn4ccnc4)n3C)c(=O)n2c1 the Potency was inconclusive: 16.4 µM [activator, partial curve]. For Cc1ccc(CN(CC2CCCO2)C(=O)CN2C(=O)C(C(C)C)Oc3ccccc32)o1 (stereo not drawn), the Potency was inconclusive: 20.6 µM [activator, single point]. In the case of O=C(CN1C(=O)S/C(=C\c2ccc(F)cc2)C1=O)NCCCn1ccnc1, the Potency is reported as inconclusive: 7.31 µM [activator, partial curve, poor fit]. In the case of Cc1ccc(CN2CC(C(=O)Nc3ccncc3)CC2=O)cc1 (stereo not drawn), the “re-replication activation” value is reported as inactive: -3.7%. In the case of CSc1nnc(-c2sc3cc(C(F)(F)F)cnc3c2-c2ccccc2)n1C, the “re-replication activation” value is reported as inactive: 13.9%. With Cc1ccc(-c2nc(CS(=O)CC(=O)N3CCN(c4ccccc4)CC3)c(C)o2)cc1 (stereo not drawn) the Potency was inconclusive: 7.94 µM [activator, partial curve, poor fit]. In the case of O=C(c1ccc(S(=O)(=O)NCc2ccco2)cc1)N1CCN(Cc2ccc3c(c2)OCO3)CC1, the “re-replication activation” value is reported as inactive: -1.97%. For COc1ccc(NC(=O)NCc2ccc3c(c2)OCO3)c(OC)c1, the Potency was inconclusive: 5.8 µM [activator, single point]. In the case of O=C1OC(=O)c2cc([N+](=O)[O-])ccc21, the “re-replication activation” value is reported as inactive: -21.6%. With CSCCC(NS(=O)(=O)c1ccc2c(c1)c(=O)n(C)c(=O)n2C)C(=O)NC1CCN(Cc2ccccc2)CC1 (stereo not drawn) the Potency was inconclusive: 6.51 µM [activator, single point]. In the case of Cc1ccccc1-n1c(C)n[nH]c1=S, the Potency is reported as active: 14.6 µM. With CCOC(=O)C1CN(S(=O)(=O)c2ccc(OC)cc2)c2cc(Cl)ccc2O1 (stereo not drawn) the Potency was inconclusive: 29.1 µM [activator, single point]. For CC(C)(C)c1ccc(SCCc2cccnc2)cc1, the Potency was inconclusive: 6.51 µM [activator, single point]. For COc1ccc(C(=O)NCCN2C(=O)S/C(=C\c3cccnc3)C2=O)c(OC)c1OC, the “re-replication activation” value was inactive: 1.49%.
